Measured values as given in US20230150924A1, “NOVEL COMPOUND HAVING CANCER METASTASIS INHIBITORY ACTIVITY, PREPARATION METHOD THEREFOR, AND PHARMACEUTICAL COMPOSITION FOR INHIBITING CANCER METASTASIS AND INVASION OR TREATING COLORECTAL CANCER, COMPRISING COMPOUND” (CELLGENTEK CO., LTD., priority 2019, published 2023).
Several values for one entry are separate records, joined by “and”; a condition that tells them apart may be missing. Identical values can stand only once. The name of at least one read-out is uncertain.

System: KAI1 promoter
Test: KAI1 promoter luciferase reporter assay in transfected Caco2 cells
Format: cell-based, human
Details: 1 μM compound, 16 hours, luciferase activity relative to DMSO control (=1)
Method: Experiments were conducted to evaluate the metastasis-related promoter activity-increasing effects of the compounds according to the present invention. Specifically, the KAI1 promoter reporter vector was used. In this case, the pRL-TK vector, a vector expressing renilla luciferase, was used as an internal control indicating the transfection efficiency in each transfected well.
First, 24 hours before transfection, 2×10^6 human colon cancer cell line, Caco2) cells were cultured in 10 ml of DMEM containing 10% FBS and 1% penicillin/streptomycin on a 100-mm-diameter plate, and then transformed with 5 μg of a pRL-TK vector mixture containing a transfection reagent and the KAI1 promoter, and then cultured in a 5% CO2 incubator at 37° C. for 48 hours. Thereafter, the adherent cells were detached using trypsin and counted using a hemacytometer, and then 5×10^3 transfected Caco2 cells in 100 μl of DMEM containing 10% FBS and 1% penicillin/streptomycin were seeded into each well of a 96-well plate and cultured in a 5% CO2 incubator at 37° C. for 24 hours. […] After completion of lysis, the cells were measured for luciferase activity using a luciferase reporter assay system (Promega, USA). […] In addition, data were analyzed at a significance level of p<0.05 by one-way ANOVA (Tukey's HSD), and SPSS 17.0 (Chicago, USA) statistical program was used. […]

Cc1[nH]c(/C=C2\C(=O)Nc3ccc(S(=O)(=O)Cc4c(Cl)cccc4Cl)cc32)c(C)c1C(=O)N1CCC[C@@H]1CN1CCCC1 [PHA, PHA-665752, reference compound]
Relative KAI promoter activity: 1.20 and 2.04
